{
  "source": "PubChem BioAssay AID1347423",
  "about": "(Functional Genomics Laboratory (NCATS/FGL), 2020)",
  "note": "The whole screen tested about 52,000 sequences, of which about 210 (0.4%) were called active.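 Rule for the calls: active = gene whose silencing raises cell survival under the drug, median off-target-corrected z-score across its silencing RNAs 2 or more; inactive = the rest.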 Some of the results follow.",
  "data": [
    {"test": "Resistance to Poly (ADP-Ribose) Polymerase inhibitor: Gene Identification via Genome-wide siRNA Screen", "conditions": "mouse BRCA2 R2336H ES cells, olaparib, CellTiter-Glo viability; hits give high values", "method_in_brief": "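Genome-wide siRNA screen (3 siRNAs/gene, 20 nM) in mouse ES cells carrying hypomorphic BRCA2 R2336H; olaparib 500 nM added 48 h post-transfection, CellTiter-Glo viability 72 h later. Normalized to plate-median negative control; MAD z-scores, gene median, seed-adjusted.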", "values": [
      {"sequence": "GGUUGUGCAUUGUUUAUUGTT against Ppfibp1", "z-score": "inactive: 1.93"},
      {"sequence": "AACAACUGAGCAAAUCCACTT against Thoc4", "z-score": "inactive: -1.53"},
      {"sequence": "CCUCAUCUACAAGUGUGGUTT against Eef1a2", "z-score": "inactive: -0.386"},
      {"sequence": "GGAUCAUUUACAUUCAUACTT against Alg12", "z-score": "inactive: -1.37"},
      {"sequence": "GCCCACGUAUUUGUCUGCUTT against Sprn", "z-score": "inactive: -1.58"},
      {"sequence": "GGUUCUAGACAAUUACCUGTT against Clic1", "z-score": "inactive: -0.399"},
      {"sequence": "GGUUCAAGCCAUCUUCAAATT against Olfr1325", "z-score": "inactive: 1.21"},
      {"sequence": "GGCCUACCCAAUUCUUAACTT against Ces1", "z-score": "inactive: -0.547"},
      {"sequence": "GCGCAAUAUAGAGUCAUCATT against 6530404N21Rik", "z-score": "inactive: -0.0242"},
      {"sequence": "AGGUUUUUAGCCUGAGUGATT against Olfr688", "z-score": "inactive: 0.641"},
      {"sequence": "GGAAUAAGUAGUGAUAGAGTT against Il5ra", "z-score": "inactive: 0.846"},
      {"sequence": "GCAAAGUAUAGCUAUGUGCTT against LOC209380", "z-score": "inactive: -0.041"},
      {"sequence": "GGAGCGACAACUGUGAUAUTT against Liph", "z-score": "inactive: -0.293"},
      {"sequence": "GGCCUGUCUGAGCUUAACATT against Cklfsf3", "z-score": "inactive: -0.723"},
      {"sequence": "CCAAGAGGAUUUUCUCUUUTT against Krtap6-1", "z-score": "inactive: 0.46"},
      {"sequence": "CGGUUAACUGGAAAGUGCGTT against Gm644", "z-score": "inactive: 0.553"},
      {"sequence": "GCUGUGAAAUGUUACUGCUTT against Gm405", "z-score": "inactive: 0.173"},
      {"sequence": "GCGACGAGAAGAAUCUGCUTT against 1110012J17Rik", "z-score": "inactive: 1.01"},
      {"sequence": "GGACAACUUCACCUUGAUUTT against Dpysl2", "z-score": "inactive: 0.112"},
      {"sequence": "GCCUGUCAACUACCCAUAUTT against Sdbcag84", "z-score": "inactive: 1.64"},
      {"sequence": "GCCACGUUCCCUUGAUCAUTT against Mx2", "z-score": "inactive: -0.331"},
      {"sequence": "GCCCAAGUUUCGGUCUCCATT against Map4k1", "z-score": "inactive: -1.24"},
      {"sequence": "GGAACAAAGAUUGAGAGAATT against 5730555F13Rik", "z-score": "inactive: -0.71"},
      {"sequence": "GACAAGAUGCACUUCGAAUTT against Uchl3", "z-score": "inactive: -0.199"},
      {"sequence": "GGGUCUGCUGGUUUAUUUUTT against Olfr720", "z-score": "inactive: 0.616"},
      {"sequence": "GGCCCUAAACAAGUUAUCUTT against LOC434285", "z-score": "inactive: -0.321"},
      {"sequence": "GGUAGAAGCAGAGUUACCATT against 4933400C05Rik", "z-score": "inactive: 1.17"},
      {"sequence": "GGACAGGAGUUUAAAAUUATT against Mmrp19", "z-score": "inactive: 0.948"},
      {"sequence": "GGAGGAGGUGGAAUUCAUUTT against Dnajb6", "z-score": "inactive: -1.66"}
    ]}
  ]
}
